Assay results reported in publication PMC4823954, “From fighting depression to conquering tumors: a novel tricyclic thiazepine compound as a tubulin polymerization inhibitor” (Cell Death & Disease, 2016).

Test system: H460TaxR cells
Test: Genome-wide transcriptional profiling microarray
Type: cell-based, human
Details: 2 μM, 4 h

Cc1ccc(C2=Nc3cccnc3S(=O)(=O)c3ccccc32)cc1 [TBPT, 6-(p-tolyl)benzo[f] pyrido[2,3-b][1,4] thiazepine 11,11-dioxide]
number of genes suppressed (≥2-fold): 534 genes
number of genes upregulated (≥2-fold): 410 genes
